This passage reports binding results from publication PMC3461030.

Chains of the proteins cited; added tags and fusions are not shown.
UniProt Q96GD4: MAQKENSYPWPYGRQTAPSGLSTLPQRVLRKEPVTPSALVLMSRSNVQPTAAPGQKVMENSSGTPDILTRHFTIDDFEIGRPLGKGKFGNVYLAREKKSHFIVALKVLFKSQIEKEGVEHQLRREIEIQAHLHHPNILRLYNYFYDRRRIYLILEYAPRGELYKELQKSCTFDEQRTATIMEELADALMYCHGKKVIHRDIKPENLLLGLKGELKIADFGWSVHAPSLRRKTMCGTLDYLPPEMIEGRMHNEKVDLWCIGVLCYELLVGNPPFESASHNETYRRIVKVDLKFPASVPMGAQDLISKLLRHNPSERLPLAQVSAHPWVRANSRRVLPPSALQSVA

Changes are numbered by the printed parent chain. These are yes or no findings as the source states them, for the method shown. Binding seen in cells or lysates may run through a third protein. Some binding calls cover weakened binding; strength is not graded here. Sequences can lack the tags named with a protein.

What all share (test): co-IP; monoclonal anti-FLAG antibody on metaphase-enriched HEK cell lysates co-transfected with Aurora B kinase and FLAG-Mst1 plasmids; Western blot for Aurora B kinase
Assay [1] concerns the target T1, FLAG-Mst1 K59R (UniProt Q13043).
T1 sequence: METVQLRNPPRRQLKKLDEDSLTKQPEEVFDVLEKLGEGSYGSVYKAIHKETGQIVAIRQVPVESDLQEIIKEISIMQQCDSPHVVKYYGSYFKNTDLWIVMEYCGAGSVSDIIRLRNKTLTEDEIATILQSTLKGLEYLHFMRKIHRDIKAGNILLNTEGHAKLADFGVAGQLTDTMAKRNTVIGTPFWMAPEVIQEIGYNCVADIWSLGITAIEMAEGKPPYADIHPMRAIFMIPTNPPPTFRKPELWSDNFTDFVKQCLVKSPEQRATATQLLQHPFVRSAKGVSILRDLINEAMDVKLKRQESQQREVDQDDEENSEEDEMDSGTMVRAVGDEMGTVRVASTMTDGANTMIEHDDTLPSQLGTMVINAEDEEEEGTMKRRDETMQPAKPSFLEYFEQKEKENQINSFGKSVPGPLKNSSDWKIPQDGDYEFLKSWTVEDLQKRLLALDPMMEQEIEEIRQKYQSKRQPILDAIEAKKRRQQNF

Assay [2] has as its target T2, FLAG-Mst1 WT (UniProt Q13043).
T2 sequence: T1 sequence with R59K

Assay [3] concerns the target T3, FLAG-Mst1 K59R ΔC (amino acid 1–330, lacking NES, and kinase activity) (UniProt Q13043).
T3 sequence: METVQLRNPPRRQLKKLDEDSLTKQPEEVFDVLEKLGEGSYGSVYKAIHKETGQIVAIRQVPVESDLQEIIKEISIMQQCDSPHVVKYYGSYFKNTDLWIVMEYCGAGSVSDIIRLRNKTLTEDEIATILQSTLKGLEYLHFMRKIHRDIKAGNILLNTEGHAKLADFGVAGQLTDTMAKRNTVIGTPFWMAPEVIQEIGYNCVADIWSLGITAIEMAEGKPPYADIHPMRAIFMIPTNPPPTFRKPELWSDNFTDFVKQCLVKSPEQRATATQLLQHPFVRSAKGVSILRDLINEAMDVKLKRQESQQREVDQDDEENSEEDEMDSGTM

On to “Aurora B kinase-GFP (from UniProt Q96GD4 1-344)”, for which the figures for the binding entry in assay [1], in assay [2] and in assay [3] were “binds”, “binds” and “binds weakly”, respectively.
